Test results reported in the supplement of paper PMC10849652.
The other results are listed elsewhere or left out.

Chains of the proteins cited; added tags and fusions are not shown. Lines headed by an entry give the natural chain unless they say otherwise; changes in a name come on top.
UniProt Q32NB8: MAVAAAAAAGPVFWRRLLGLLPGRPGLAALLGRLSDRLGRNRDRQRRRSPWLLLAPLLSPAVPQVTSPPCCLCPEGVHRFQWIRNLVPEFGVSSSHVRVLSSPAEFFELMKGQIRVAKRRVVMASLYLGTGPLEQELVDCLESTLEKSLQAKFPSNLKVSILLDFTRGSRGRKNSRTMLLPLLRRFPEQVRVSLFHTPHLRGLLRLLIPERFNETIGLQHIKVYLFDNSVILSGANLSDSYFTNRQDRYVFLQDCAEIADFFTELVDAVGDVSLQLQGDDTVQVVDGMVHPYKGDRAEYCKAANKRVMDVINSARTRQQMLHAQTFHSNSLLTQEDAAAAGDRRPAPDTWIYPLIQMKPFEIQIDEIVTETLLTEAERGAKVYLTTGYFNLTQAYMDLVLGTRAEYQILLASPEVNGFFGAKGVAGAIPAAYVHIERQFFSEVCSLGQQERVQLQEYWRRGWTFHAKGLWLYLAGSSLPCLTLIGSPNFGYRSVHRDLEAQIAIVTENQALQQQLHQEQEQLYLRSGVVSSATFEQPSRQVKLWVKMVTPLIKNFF
UniProt Q8TBF5: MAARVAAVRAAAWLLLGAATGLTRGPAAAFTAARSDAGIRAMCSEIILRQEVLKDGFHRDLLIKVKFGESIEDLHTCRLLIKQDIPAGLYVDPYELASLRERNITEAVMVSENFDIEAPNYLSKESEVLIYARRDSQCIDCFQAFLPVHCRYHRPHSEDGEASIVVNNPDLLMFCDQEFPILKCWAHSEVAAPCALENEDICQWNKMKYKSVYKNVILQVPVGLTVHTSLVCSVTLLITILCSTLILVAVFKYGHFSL
UniProt Q9C010: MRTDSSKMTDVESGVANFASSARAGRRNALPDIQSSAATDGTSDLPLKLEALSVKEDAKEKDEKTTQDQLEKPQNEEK
UniProt P60673: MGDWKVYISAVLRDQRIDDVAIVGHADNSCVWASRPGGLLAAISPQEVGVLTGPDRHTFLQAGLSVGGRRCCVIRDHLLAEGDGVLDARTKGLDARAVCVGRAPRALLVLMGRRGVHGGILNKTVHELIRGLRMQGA
UniProt O60346: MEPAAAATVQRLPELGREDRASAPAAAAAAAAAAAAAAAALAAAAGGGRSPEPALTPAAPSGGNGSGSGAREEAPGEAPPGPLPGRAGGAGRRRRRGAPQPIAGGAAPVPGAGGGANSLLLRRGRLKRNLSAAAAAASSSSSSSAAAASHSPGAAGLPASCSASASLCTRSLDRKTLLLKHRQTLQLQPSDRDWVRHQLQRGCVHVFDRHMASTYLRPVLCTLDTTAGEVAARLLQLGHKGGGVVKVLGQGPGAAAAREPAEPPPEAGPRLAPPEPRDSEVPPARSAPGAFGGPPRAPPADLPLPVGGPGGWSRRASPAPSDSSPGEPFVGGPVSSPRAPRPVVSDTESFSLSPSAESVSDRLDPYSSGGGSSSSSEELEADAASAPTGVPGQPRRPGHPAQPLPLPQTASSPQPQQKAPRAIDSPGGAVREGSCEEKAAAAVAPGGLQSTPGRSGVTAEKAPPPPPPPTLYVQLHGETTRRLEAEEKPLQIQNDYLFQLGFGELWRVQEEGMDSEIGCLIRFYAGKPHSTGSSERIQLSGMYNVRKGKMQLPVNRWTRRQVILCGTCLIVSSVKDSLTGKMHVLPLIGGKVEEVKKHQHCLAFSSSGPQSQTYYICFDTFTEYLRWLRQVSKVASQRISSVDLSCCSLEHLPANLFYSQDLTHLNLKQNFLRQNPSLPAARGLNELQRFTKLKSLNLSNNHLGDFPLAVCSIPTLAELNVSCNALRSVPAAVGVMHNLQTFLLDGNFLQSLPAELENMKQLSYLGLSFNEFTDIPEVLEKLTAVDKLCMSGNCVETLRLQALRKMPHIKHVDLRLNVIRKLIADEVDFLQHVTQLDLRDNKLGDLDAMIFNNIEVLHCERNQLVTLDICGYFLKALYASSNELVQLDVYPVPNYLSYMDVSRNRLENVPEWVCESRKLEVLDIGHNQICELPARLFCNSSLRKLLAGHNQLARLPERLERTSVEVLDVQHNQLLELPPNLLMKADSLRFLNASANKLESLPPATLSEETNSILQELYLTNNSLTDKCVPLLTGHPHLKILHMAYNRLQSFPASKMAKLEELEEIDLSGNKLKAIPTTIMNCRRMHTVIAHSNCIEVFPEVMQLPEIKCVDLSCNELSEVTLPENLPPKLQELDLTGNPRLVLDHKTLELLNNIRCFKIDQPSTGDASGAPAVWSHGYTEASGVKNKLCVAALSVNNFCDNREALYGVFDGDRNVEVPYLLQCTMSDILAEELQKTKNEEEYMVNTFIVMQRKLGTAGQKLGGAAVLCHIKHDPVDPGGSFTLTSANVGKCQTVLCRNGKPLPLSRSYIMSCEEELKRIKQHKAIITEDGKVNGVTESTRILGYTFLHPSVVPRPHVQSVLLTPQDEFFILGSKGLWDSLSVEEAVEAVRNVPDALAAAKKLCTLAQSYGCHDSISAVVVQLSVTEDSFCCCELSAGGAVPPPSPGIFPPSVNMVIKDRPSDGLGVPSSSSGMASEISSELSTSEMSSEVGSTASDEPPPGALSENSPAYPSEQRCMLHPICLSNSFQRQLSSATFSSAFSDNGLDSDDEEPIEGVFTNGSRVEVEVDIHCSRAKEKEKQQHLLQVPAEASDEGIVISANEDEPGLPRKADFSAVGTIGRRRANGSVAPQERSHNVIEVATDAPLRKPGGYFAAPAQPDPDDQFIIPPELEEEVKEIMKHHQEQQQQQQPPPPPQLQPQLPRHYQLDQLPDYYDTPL
UniProt Q9BSJ6: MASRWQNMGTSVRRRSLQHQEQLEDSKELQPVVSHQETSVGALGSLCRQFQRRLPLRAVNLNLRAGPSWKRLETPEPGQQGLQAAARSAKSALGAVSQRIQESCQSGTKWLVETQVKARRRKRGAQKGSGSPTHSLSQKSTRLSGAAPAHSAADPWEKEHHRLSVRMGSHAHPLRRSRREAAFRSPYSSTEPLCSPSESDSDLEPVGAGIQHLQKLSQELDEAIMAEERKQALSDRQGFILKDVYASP
UniProt Q9UBF8: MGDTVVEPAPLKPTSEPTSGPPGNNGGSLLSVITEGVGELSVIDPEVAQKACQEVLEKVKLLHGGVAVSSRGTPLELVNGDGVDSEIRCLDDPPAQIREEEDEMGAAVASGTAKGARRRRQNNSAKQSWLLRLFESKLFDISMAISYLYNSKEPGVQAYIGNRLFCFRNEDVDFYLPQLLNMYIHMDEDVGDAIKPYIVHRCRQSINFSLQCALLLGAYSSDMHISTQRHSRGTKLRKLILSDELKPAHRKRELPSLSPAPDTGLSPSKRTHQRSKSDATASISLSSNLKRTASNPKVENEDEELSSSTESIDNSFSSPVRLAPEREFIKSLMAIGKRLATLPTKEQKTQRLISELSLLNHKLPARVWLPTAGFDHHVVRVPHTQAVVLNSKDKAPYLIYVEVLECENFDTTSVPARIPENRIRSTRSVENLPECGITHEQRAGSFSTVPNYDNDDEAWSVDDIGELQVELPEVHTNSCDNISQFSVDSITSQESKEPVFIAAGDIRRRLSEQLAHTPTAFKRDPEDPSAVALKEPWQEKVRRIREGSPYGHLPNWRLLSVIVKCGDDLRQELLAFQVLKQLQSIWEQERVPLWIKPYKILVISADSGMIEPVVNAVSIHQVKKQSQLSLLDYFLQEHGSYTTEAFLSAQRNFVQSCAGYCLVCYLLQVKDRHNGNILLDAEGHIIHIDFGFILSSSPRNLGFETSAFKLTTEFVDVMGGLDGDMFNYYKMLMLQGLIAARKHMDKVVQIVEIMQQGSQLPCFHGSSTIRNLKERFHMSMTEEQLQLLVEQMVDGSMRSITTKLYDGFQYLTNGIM
UniProt Q99569: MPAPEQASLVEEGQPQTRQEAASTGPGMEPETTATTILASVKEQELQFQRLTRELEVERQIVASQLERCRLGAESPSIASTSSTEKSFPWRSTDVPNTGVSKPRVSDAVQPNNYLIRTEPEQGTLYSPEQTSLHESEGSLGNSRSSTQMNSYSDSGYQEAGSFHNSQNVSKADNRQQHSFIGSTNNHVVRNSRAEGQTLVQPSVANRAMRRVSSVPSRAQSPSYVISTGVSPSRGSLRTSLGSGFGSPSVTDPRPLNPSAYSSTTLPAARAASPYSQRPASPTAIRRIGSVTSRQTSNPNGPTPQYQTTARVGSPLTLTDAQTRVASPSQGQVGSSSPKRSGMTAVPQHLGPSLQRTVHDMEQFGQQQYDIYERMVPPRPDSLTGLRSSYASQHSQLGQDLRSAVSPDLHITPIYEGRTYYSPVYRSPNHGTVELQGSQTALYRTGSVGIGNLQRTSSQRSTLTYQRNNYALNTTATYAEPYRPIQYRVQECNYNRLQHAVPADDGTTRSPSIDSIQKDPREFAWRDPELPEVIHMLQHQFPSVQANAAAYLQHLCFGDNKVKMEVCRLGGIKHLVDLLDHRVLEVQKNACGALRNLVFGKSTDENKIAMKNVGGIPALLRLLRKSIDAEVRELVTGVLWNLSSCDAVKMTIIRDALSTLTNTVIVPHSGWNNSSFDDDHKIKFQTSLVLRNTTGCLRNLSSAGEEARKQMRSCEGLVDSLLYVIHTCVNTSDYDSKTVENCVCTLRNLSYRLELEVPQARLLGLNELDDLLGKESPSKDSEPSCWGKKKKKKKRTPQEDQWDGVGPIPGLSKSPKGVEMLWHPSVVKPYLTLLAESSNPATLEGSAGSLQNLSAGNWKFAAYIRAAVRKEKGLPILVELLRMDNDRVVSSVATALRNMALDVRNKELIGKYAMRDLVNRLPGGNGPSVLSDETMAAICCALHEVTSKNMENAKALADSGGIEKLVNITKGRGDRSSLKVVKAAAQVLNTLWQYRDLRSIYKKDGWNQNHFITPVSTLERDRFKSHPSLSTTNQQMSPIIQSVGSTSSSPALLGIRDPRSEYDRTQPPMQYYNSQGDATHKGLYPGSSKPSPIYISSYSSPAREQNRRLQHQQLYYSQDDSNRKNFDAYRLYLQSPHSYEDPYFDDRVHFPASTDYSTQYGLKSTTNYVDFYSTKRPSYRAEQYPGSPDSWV
UniProt Q8N2W9: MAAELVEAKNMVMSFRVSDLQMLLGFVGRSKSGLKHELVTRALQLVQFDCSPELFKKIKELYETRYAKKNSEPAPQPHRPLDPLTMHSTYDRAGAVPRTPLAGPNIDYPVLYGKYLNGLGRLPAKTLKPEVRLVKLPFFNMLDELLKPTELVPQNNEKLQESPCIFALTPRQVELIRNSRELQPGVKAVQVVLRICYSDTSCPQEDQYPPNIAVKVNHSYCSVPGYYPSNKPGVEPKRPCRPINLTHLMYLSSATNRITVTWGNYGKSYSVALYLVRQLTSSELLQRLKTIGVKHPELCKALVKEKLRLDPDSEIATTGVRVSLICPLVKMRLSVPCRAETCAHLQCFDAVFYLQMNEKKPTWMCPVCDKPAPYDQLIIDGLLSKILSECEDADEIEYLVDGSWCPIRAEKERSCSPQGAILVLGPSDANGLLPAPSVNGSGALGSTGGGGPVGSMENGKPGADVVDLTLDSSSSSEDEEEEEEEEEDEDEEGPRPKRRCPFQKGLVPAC
UniProt O00329: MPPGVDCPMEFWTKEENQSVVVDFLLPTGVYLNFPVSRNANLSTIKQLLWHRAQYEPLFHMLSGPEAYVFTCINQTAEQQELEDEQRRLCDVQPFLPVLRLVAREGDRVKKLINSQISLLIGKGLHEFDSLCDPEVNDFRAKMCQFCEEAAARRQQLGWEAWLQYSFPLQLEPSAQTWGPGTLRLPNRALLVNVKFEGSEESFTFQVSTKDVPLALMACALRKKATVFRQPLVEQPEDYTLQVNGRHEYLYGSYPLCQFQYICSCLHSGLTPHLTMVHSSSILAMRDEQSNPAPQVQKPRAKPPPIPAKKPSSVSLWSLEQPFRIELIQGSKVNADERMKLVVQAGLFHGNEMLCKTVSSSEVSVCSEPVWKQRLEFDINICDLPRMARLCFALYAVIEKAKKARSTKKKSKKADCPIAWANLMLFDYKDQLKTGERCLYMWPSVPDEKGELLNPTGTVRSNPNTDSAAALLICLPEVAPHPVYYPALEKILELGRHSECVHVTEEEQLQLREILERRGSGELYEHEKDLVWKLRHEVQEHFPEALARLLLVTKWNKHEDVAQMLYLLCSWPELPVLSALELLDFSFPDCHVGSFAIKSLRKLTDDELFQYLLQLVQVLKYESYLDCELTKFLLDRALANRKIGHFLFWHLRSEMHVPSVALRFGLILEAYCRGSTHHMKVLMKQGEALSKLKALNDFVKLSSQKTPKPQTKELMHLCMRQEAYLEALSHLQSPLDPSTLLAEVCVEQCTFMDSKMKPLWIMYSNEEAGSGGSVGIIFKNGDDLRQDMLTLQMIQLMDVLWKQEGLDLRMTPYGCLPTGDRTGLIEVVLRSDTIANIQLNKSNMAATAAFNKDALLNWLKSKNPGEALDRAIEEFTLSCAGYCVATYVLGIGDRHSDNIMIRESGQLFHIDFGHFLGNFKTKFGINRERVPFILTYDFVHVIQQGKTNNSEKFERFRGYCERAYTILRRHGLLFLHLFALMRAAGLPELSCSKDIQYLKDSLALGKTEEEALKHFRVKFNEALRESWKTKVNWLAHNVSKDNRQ

Tests used:
Assay in all cases: log2 fold change, soluble protein after heating vs DMSO (PISA); higher = thermal stabilisation; K562 cells, 10 uM, 30 min; active = over 0.2 and 3.5 SD of the protein, either way, in both replicates (recomputed)
bafetinib = compound: Cc1ccc(NC(=O)c2ccc(CN3CC[C@H](N(C)C)C3)c(C(F)(F)F)c2)cc1Nc1nccc(-c2cncnc2)n1 [bafetinib]
Method in brief: (§1)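 Values are thermal stability changes relative to control samples and are taken from duplicates. They are stated as log2 fold changes. Before quantification by TMTpro 16plex LC-MS/MS with equalised channel sums, K562 cells at 2×10^6 cells/mL were treated with 10 μM compound for 30 min, heated in aliquots for 3 min across 48°C-58°C, pooled, extracted in PBS with 0.5% NP-40 at 4°C, and centrifuged at 21,000xg for 90 min to give the soluble supernatant.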

[1] = compound: Cc1cccc(CC(=O)N2CCc3c2ccc(-c2cn(C)c4ncnc(N)c24)c3F)n1
Method in brief: as §1

nilotinib = compound: Cc1cn(-c2cc(NC(=O)c3ccc(C)c(Nc4nccc(-c5cccnc5)n4)c3)cc(C(F)(F)F)c2)cn1 [nilotinib]
Method in brief: as §1

[2] = compound: Cc1nc(Nc2n[nH]c3c2CN(C(=O)N[C@H](CN(C)C)c2ccccc2)C3(C)C)c2sccc2n1
Method in brief: as §1

dasatinib = compound: Cc1nc(Nc2ncc(C(=O)Nc3c(C)cccc3Cl)s2)cc(N2CCN(CCO)CC2)n1 [dasatinib]
Method in brief: as §1

[3] = compound: Cc1ncc(-c2ccnc(Nc3ccc(S(C)(=O)=O)cc3)n2)n1C(C)C
Method in brief: as §1

[4] = compound: Cn1cc(-c2ccc3c(c2)CCN3C(=O)Cc2cccc(C(F)(F)F)c2)c2c(N)ncnc21
Method in brief: as §1

tipifarnib = compound: Cn1cncc1[C@@](N)(c1ccc(Cl)cc1)c1ccc2c(c1)c(-c1cccc(Cl)c1)cc(=O)n2C [tipifarnib]
Method in brief: as §1

mubritinib = compound: FC(F)(F)c1ccc(/C=C/c2nc(COc3ccc(CCCCn4ccnn4)cc3)co2)cc1 [mubritinib]
Method in brief: as §1

[5] = compound: Cn1cc(-c2ccc3nnc(C(F)(F)c4ccc5ncccc5c4)n3n2)cn1
Method in brief: as §1

Measured: log2 fold change

PGS1 (UniProt Q32NB8)
inactive: bafetinib 0.092 | [1] -0.036 | nilotinib 0.078 | [2] -0.095 | dasatinib -0.133 | [3] -0.07 | [4] -0.048 | tipifarnib -0.029 | mubritinib 0.065

PKM isoform 2 (UniProt P14618)
inactive: bafetinib -0.155 | [1] 0.029 | nilotinib 0.121 | [2] -0.104 | dasatinib -0.014 | [3] 0.198 | [5] 0.017 | tipifarnib 0.209 | mubritinib 0.05

PIGM (UniProt Q9H3S5)
inactive: bafetinib 0.007 | nilotinib 0.04 | [2] -0.02 | dasatinib 0.031 | [3] 0.003 | [4] -0.105

PIGX isoform 2 (UniProt Q8TBF5)
inactive: bafetinib -0.041 | [1] 0.237 | dasatinib 0.037 | [4] 0.122 | mubritinib -0.151

PIP5K1C isoform 3 (UniProt O60331)
inactive: bafetinib -0.082 | [1] 0.087 | dasatinib 0.027

PIGK (UniProt Q92643)
inactive: bafetinib 0.004 | [1] -0.133 | nilotinib -0.039 | [2] 0.04 | dasatinib -0.005 | [3] -0.006 | [4] -0.063 | [5] -0.004 | tipifarnib 0.037 | mubritinib -0.073

PIGL (UniProt Q9Y2B2)
inactive: bafetinib 0.1 | [1] -0.012 | nilotinib 0.094 | [2] -0.036 | dasatinib 0.037 | [3] -0.041 | [4] -0.095 | [5] 0.062 | mubritinib 0.074

PIGO (UniProt Q8TEQ8)
inactive: bafetinib -0.028 | nilotinib -0.028 | [2] -0.041 | [3] -0.1 | [4] 0.036 | mubritinib -0.083

PKIB isoform 2 (UniProt Q9C010)
inactive: [1] -0.113 | tipifarnib 0.007 | mubritinib 0.128

PKIG (UniProt Q9Y2B9)
inactive: mubritinib -0.197

PHYKPL (UniProt Q8IUZ5)
inactive: [1] -0.032 | nilotinib 0.096 | [2] 0.03 | dasatinib -0.115 | [3] -0.049 | tipifarnib 0.034 | mubritinib 0.036

PIM1 isoform 2 (UniProt P11309)
inactive: [1] -0.263 | mubritinib 0.721

PHRF1 (UniProt Q9P1Y6)
inactive: [5] 0.084 | tipifarnib 0.159 | mubritinib -0.099

PFN3 (UniProt P60673)
inactive: [1] -0.331 | dasatinib -0.394 | [4] 0.003 | tipifarnib -0.271 | mubritinib 0.002

Two records picked at random from those above, as already listed:
PFN3 (UniProt P60673)
inactive: [1] -0.331 | dasatinib -0.394 | [4] 0.003 | tipifarnib -0.271 | mubritinib 0.002

PHYKPL (UniProt Q8IUZ5)
inactive: [1] -0.032 | nilotinib 0.096 | [2] 0.03 | dasatinib -0.115 | [3] -0.049 | tipifarnib 0.034 | mubritinib 0.036

Continuation.

PICK1 (UniProt Q9NRD5)
inactive: nilotinib -0.001 | [2] -0.173 | [3] -0.097 | [5] -0.179 | mubritinib 0.048

PIK3C2A (UniProt O00443)
inactive: nilotinib -0.039 | [2] 0.247 | [3] 0.451 | [5] -0.278 | mubritinib 0.073

PLEK (UniProt P08567)
inactive: [5] -0.024 | tipifarnib 0.058

PHETA1 isoform 4 (UniProt Q8N4B1)
inactive: [1] -0.086 | dasatinib 0.085 | tipifarnib 0.092

PKNOX1 (UniProt P55347)
inactive: dasatinib -0.103

PLD6 (UniProt Q8N2A8)
inactive: tipifarnib 0.153

PLEKHA5 isoform 6 (UniProt Q9HAU0)
inactive: [1] 0.034 | [4] -0.262 | mubritinib -0.19

PHF14 (UniProt O94880)
inactive: [1] 0.069 | dasatinib 0.137 | [5] 0.084 | mubritinib 0.143

PLAUR (UniProt Q03405)
inactive: [4] 0.258

PHLPP1 (UniProt O60346)
inactive: dasatinib 0.007 | [4] 0.026

PIAS1 isoform 2 (UniProt O75925)
inactive: bafetinib -0.089 | [5] -0.097 | tipifarnib 0.073

PEX5 isoform 4 (UniProt P50542)
inactive: dasatinib 0.139 | [4] 0.219 | [5] -0.078

PKLR (UniProt F8W6W2)
inactive: bafetinib -0.114 | tipifarnib 0.103

PKMYT1 (UniProt Q99640)
inactive: [5] -0.074

PLCXD1 (UniProt Q9NUJ7)
inactive: [5] -0.099
active: bafetinib -0.642

PIBF1 (UniProt Q8WXW3)
inactive: bafetinib 0.053 | dasatinib -0.009 | mubritinib -0.076

PIMREG (UniProt Q9BSJ6)
inactive: [1] 0.197

PI4KB isoform 2 (UniProt Q9UBF8)
inactive: [1] 0.038

PKP4 (UniProt Q99569)
inactive: [5] 0.081

PHC2 isoform 5 (UniProt Q8IXK0)
inactive: bafetinib 0.074 | dasatinib -0.031 | [4] -0.008 | [5] -0.048 | mubritinib -0.039

PIAS4 (UniProt Q8N2W9)
inactive: [1] 0 | dasatinib -0.116 | [5] 0.313 | tipifarnib 0.002 | mubritinib 0.199

PEX26 (UniProt Q7Z412)
inactive: [1] 0.024 | nilotinib -0.169 | [2] 0.187 | dasatinib 0.085 | [3] -0.494 | [4] 0.012 | [5] 0.046 | tipifarnib 0.011 | mubritinib 0.016

PLEKHB2 isoform 2 (UniProt Q96CS7)
inactive: bafetinib -0.108 | dasatinib 0.178 | tipifarnib 0.002

PIGB (UniProt Q92521)
inactive: [1] 0.085 | dasatinib -0.036 | [4] -0.105 | [5] -0.048 | tipifarnib 0.006 | mubritinib 0.048

PIK3CD (UniProt O00329)
inactive: bafetinib 0.033 | [4] -0.228 | [5] 0.074 | tipifarnib 0.031

PGM1 isoform 2 (UniProt P36871)
inactive: dasatinib 0.118

PEX3 (UniProt P56589)
inactive: nilotinib -0.105 | [2] 0.132 | dasatinib -0.28 | [3] -0.153 | [4] -0.019 | [5] -0.12 | tipifarnib -0.09 | mubritinib 0.002
